The target of assay [1] is SR344 (soluble human IL-6R, N-terminal 1st to 344th amino acids) (human) (UniProt P08887). Put plainly: SPR (Biacore T100), antibody captured on Protein A/G, SR344 as analyte, 37°C. Background: SPR reads the build-up and loss of mass on a sensor chip optically.
Assay [2] shares this target. Put plainly: SPR (Biacore T100, 37 °C): antibody captured on Protein A/G, SR344 as analyte.

By UniProt entry, the sequences of proteins in these tests, tags left out. Where a name states a change or a piece, a line headed by the entry shows the natural chain unless it says otherwise.
UniProt P08887: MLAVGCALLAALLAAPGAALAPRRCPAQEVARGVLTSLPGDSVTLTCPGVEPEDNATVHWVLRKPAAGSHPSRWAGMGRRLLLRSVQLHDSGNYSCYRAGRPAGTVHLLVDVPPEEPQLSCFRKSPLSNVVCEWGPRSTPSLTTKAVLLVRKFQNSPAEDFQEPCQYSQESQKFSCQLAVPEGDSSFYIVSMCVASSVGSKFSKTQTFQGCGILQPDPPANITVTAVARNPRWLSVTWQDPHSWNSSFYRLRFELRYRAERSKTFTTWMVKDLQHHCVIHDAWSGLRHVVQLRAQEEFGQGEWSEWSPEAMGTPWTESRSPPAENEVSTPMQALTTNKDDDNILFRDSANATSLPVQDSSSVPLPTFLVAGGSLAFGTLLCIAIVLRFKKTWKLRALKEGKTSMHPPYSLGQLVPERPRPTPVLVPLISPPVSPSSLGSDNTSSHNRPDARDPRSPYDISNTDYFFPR

No constants are given. Whether binding was seen depends on the method and setting. Binding can be weak; no strength is given.

B1: F2H/L39-IgG1 (antibody, V domains shown)
VH: QVQLQESGPGLVKPSETLSLTCAVSGYSISDDHAWSWVRQPPGEGLEWIGYISYSGITNYNPSLQDRVTISRDNSKNTLYLQMNSLRAEDTAVYYCARLLARATAMDYWGQGILVTVSS
VL: DIQMTQSPSSLSASVGDSVTITCQASEDISSYLNWYQQKPGKAPELLIYYGSELESGVPSRFSGSGSGTDFTFTISSLEAEDAATYYCGQGNRLPYTFGQGTKVEIER
Turning to B1, in assay [1], the binding entry is on record as “binds”.

B2: RDC-23 (antibody, V domains shown)
VH: QVQLQESGPGLVRPSQTLSLTCTVSGYSITSDHAWSWVRQPPGRGLEWIGYISYSGITTYNPSLKSRVTMLRDTSKNQFSLRLSSVTAADTAVYYCARVLARITAMDYWGQGSLVTVSS
VL: DIQMTQSPSSLSASVGDRVTITCRASQDISSYLNWYQQKPGKAPKLLIYYTSRLHSGVPSRFSGSGSGTDFTFTISSLQPEDIATYYCGQGNRLPYTFGQGTKVEIK
Turning to B2, in assay [2], the binding entry is “binds”.

B3: H96/PF1L-IgG1 (antibody, V domains shown)
VH: QVQLQESGPGLVKPSETLSLTCAVSGYSISDDHAWSWVRQPPGEGLEWIGYISYSGITNYNPSLKGRVTISRDNSKNTLYLQMNSLRAEDTAVYYCARVLARITAMDYWGEGTLVTVSS
VL: DIQMTQSPSSLSASVGDSVTITCQASQDISSYLNWYQQKPGKAPELLIYYGSELHSGVPSRFSGSGSGTDFTFTISSLEAEDAATYYCGQGNRLPYTFGQGTKVEIE
On to B3, for which, in assay [1], the binding entry is listed as “binds”.

B4: PF1 antibody (antibody, IgG1, V domains shown)
VH: QVQLQESGPGLVKPSETLSLTCAVSGYSISDDHAWSWVRQPPGEGLEWIGYISYSGITNYNPSLKGRVTISRDTSKNQFSLKLSSVTAADTAAYYCARVLARITAMDYWGEGTLVTVSS
VL: DIQMTQSPSSLSASVGDSVTITCQASQDISSYLNWYQQKPGKAPELLIYYGSELHSGVPSRFSGSGSGTDFTFTISSLEAEDAATYYCGQGNRLPYTFGQGTKVEIE
B4: the binding result in assay [1] and in assay [2] was “binds” throughout.

Values taken from patent US20110245473A1.
